# Construct, isoform or probe ends are uncertain for at least one entry. For part of these data: No signal at the amounts used counts as a negative. For part of these data: A weaker result is weaker than the reference pair of the same experiment. For part of these data: At least one verdict rests on a figure or table, not on a statement of the authors.
# The chains behind the UniProt entries cited, without tags or fusion partners.
# UniProt Q67TQ5, entry or part of it: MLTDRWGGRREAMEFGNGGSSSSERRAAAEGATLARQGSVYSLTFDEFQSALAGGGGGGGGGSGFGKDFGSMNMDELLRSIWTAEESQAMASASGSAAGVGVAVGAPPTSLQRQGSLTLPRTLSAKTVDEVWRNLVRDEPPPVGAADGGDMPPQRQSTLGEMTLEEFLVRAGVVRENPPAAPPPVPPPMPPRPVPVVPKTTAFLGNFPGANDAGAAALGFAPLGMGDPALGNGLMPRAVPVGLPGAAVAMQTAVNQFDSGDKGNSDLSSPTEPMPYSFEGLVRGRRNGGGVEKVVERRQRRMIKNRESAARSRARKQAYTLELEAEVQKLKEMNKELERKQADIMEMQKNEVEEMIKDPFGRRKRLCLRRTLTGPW
# How the values were obtained:
# [1] = system: GST-bZIP72 (unphosphorylated) (Oryza sativa ssp. japonica cv Nipponbare); assay: EMSA; details: Beyotime EMSA/gel-shift binding buffer (composition not given), 25 C, 20 min preincubation then 20 min with 20 fmol biotin probe, 6% acrylamide gel, recombinant protein, protein details: GST (N-term, pGEX-4T-1), label: biotin
# [2] = molecular target: p-GST-bZIP72 (phosphorylated) (Oryza sativa ssp. japonica cv Nipponbare) (UniProt Q67TQ5); assay: EMSA; details: Beyotime EMSA/gel-shift binding buffer (composition not given), 25 C, 20 min preincubation then 20 min with 20 fmol biotin probe, 6% acrylamide gel, recombinant protein, protein details: GST (N-term, pGEX-4T-1), label: biotin
# [3] = molecular target: p-GST-bZIP72 (phosphorylated) (Oryza sativa ssp. japonica cv Nipponbare) (UniProt Q67TQ5); assay: competition with a labelled probe; details: 50- to 200-fold excess unlabeled probe, dose-dependent; Beyotime EMSA/gel-shift binding buffer (composition not given), 25 C, 20 min preincubation then 20 min with 20 fmol biotin probe; 6% acrylamide gel; recombinant protein; protein details: GST (N-term, pGEX-4T-1)
sequence,measurement,setting,value
CGGTGGCTTTCCGGTGGCCCGGCGATGGGCGCGCACGTGGGGAAGATGGGTGCAGACTCC (double strand) [AOS1 promoter probe],binding result,[1]; unphosphorylated,no binding
CTCGTAACAGCCCCGGTGTTACACGTGCTCTAAGAGAGATTAATTAAATCGATAAGCTACCAGAGGTTTAGTTTTCCACGTGTTAATTAGATTGGAAAGC (double strand) [GA20ox2 promoter probe],binding result,[1],binds
GAGTCCACGGCCATGAGCTTAGCTTGTCATGCACGTAGCTTAATTAGGCCCGGAACTTCC (double strand) [LOX1 promoter probe],binding result,[1]; unphosphorylated,no binding
GGGAAATTTTGGGGGAGAGAGAGAGCAAACGGGCAGCAGGGGTAGTGCGCGTCCCGCACT (double strand) [AOC P1 mutant CaaacG],binding result,[2]; binding compromised,binds more weakly
GGGAAATTTTGGGGGAGAGAGAGAGCACGAAGGCAGCAGGGGTAGTGCGCGTCCCGCACT (double strand) [AOC P1 mutant CACGaa],binding result,[2]; binding compromised,binds more weakly
GGGAAATTTTGGGGGAGAGAGAGAGCACGTAGGCAGCAGGGGTAGTGCGCGTCCCGCACT (double strand) [AOC P1 mutant CACGTa],binding result,[2]; binding compromised,binds more weakly
GGGAAATTTTGGGGGAGAGAGAGAGCACGTGGGCAGCAGGGGTAGTGCGCGTCCCGCACT (double strand) [AOC P1 unlabeled competitor],binding result,[3],binds
GGGAAATTTTGGGGGAGAGAGAGAGCACGTGGGCAGCAGGGGTAGTGCGCGTCCCGCACT (double strand) [AOC promoter probe P1 (G-box CACGTG)],binding result,[1]; unphosphorylated,no binding
same,binding result,[2]; bZIP72 phosphorylated by SAPK10,binds
